For at least one compound, name, drawing or mass did not settle the structure.
Assay: Formaldehyde production in test blood diluents containing antimicrobial agents (EPA Method 8315A)
Format: physicochemical
Details: both alone and in combination with other reagents

For O=C(NCO)NCO [dimethylolurea], the formaldehyde produced was “greater than 1 part per million”.
